Results are given in words; binding and its absence hold for the method and conditions named. In cells and extracts the contact can be indirect. Here binding means that the protein was enriched with, or labelled near, the bait; the list need not be complete.

Protein sequences, listed by entry. Tags and fused reporters are not part of them. Lines headed by an entry give the natural chain unless they say otherwise; changes in a name come on top.
UniProt P01106: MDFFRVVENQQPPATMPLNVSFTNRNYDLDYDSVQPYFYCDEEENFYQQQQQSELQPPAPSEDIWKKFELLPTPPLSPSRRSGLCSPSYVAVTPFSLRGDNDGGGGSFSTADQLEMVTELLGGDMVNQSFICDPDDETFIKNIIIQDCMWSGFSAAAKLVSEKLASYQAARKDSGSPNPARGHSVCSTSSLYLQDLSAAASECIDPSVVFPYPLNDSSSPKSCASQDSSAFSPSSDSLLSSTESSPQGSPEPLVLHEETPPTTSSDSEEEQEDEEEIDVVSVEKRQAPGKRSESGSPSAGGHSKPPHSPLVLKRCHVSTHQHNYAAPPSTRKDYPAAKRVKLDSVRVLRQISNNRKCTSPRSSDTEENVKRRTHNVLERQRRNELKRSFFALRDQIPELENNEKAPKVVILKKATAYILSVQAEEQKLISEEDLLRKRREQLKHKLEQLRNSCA
UniProt Q92830: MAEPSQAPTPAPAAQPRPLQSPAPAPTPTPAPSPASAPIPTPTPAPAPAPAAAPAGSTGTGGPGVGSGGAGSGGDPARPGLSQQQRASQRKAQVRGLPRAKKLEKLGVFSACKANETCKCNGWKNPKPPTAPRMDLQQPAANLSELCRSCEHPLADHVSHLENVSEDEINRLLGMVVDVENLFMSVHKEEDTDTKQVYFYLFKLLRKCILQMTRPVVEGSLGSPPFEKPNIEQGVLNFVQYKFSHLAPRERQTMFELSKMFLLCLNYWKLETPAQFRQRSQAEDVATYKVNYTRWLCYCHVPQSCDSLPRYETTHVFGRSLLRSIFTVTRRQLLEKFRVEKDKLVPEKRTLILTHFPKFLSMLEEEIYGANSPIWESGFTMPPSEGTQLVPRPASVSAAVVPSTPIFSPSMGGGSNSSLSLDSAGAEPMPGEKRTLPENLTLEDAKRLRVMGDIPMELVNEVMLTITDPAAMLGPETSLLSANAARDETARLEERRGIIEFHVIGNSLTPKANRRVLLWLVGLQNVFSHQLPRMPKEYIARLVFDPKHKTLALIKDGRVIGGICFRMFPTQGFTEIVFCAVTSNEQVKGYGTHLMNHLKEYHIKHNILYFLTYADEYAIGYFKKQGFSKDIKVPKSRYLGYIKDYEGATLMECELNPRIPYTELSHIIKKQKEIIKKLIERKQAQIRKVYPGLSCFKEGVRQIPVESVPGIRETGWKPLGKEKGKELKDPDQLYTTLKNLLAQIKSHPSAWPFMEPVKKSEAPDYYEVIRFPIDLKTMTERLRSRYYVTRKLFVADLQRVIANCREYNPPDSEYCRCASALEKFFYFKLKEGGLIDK
UniProt O15265: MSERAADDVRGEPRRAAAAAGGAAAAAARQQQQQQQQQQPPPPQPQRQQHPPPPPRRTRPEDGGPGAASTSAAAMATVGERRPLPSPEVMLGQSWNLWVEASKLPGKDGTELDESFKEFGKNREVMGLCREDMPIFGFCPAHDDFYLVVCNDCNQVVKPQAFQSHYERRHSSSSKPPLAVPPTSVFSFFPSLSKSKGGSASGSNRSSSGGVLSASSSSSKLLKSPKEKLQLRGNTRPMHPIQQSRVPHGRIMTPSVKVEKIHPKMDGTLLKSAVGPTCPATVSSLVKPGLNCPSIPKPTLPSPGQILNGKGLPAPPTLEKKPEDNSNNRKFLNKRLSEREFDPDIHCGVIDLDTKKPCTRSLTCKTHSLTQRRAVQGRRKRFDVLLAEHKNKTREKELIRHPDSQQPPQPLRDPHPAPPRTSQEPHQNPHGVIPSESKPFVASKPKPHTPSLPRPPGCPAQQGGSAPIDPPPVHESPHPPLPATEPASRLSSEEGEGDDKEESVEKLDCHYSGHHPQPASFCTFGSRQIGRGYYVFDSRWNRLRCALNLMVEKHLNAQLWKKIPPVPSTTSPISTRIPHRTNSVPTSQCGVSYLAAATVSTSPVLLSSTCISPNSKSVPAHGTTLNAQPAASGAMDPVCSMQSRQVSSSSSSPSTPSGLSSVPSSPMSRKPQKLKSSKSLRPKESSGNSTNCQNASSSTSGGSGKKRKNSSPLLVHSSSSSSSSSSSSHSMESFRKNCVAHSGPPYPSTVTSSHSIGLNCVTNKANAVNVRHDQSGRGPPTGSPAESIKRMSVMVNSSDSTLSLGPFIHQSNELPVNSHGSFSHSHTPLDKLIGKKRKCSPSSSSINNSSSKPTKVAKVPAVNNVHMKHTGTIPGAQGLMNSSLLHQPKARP

This test addresses MYC-BioTAP (HEK293-TREx) (human) (UniProt P01106). Description: affinity purification with mass spectrometry.

For the substance “KAT2A (from UniProt Q92830 1-837) (enzyme)”, the binding result was “binds”.
For ATXN7 (from UniProt O15265 1-892) the value was “binds”.

The values above are taken from publication doi:10.1101/2022.04.22.489219.
